Screening data, single-dose tests

Protein sequences, listed by entry. Tags and fused reporters are not part of them. Residues count along the entry.
UniProt I6X8D2, whole entry: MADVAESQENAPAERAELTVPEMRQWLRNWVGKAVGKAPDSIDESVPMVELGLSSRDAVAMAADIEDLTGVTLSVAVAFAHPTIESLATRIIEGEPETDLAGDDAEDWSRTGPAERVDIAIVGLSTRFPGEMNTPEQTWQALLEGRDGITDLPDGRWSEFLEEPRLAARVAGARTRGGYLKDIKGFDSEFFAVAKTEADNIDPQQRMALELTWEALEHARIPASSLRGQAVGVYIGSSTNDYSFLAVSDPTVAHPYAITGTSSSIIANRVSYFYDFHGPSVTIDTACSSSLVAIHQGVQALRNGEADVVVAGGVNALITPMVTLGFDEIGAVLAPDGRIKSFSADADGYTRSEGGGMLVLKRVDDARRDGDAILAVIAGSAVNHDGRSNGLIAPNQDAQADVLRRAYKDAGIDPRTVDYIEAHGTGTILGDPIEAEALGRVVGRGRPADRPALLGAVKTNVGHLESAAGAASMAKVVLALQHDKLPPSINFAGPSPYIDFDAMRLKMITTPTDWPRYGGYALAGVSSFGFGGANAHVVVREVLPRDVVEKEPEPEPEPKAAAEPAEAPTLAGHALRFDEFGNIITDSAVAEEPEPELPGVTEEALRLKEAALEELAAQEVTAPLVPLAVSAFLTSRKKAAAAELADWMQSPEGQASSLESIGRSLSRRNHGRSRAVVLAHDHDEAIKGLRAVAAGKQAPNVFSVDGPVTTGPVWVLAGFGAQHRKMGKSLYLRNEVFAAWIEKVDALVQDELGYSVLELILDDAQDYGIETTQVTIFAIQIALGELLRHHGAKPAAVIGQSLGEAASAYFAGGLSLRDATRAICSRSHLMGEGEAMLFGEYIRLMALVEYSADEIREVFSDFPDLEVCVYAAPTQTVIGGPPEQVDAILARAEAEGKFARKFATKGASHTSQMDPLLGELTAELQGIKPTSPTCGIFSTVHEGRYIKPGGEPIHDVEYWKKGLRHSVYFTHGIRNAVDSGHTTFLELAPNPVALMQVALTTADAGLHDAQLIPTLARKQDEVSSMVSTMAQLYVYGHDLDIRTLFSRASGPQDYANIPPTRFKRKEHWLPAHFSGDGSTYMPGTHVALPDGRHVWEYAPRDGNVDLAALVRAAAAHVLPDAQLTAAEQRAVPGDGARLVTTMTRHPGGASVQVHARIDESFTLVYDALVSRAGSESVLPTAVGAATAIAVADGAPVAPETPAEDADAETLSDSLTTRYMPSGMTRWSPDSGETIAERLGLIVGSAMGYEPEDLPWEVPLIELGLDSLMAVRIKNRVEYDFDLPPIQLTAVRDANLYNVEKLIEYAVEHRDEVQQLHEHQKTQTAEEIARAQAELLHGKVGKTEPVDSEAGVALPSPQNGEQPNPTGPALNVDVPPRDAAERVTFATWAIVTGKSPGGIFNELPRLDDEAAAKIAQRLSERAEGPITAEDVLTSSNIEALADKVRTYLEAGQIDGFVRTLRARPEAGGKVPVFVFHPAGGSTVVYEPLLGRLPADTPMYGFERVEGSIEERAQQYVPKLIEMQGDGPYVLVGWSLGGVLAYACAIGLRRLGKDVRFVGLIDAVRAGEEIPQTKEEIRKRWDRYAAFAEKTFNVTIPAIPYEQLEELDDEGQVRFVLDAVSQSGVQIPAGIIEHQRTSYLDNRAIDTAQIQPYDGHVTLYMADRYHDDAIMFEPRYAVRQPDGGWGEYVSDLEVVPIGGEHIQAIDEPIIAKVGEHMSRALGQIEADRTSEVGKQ
UniProt A4I591, 1-473: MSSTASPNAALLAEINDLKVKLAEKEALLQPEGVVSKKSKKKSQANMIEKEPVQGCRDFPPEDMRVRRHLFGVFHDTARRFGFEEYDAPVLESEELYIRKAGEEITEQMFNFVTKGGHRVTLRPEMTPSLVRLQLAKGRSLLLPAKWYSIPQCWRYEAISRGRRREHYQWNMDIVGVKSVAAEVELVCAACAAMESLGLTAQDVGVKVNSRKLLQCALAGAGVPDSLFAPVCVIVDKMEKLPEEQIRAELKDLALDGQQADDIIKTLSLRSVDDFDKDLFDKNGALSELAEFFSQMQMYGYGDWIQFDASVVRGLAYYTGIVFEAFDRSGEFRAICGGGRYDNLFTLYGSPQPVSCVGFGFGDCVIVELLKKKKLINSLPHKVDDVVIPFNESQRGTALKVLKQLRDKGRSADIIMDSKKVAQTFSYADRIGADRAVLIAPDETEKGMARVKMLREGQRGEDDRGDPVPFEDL
UniProt P9WPC5, whole entry: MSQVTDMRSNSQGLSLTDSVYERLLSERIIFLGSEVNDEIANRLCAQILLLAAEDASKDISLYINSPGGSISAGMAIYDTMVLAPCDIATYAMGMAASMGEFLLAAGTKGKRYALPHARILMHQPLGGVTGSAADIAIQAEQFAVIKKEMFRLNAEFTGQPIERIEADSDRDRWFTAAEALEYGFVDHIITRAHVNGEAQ
UniProt P9WPC3, whole entry partner: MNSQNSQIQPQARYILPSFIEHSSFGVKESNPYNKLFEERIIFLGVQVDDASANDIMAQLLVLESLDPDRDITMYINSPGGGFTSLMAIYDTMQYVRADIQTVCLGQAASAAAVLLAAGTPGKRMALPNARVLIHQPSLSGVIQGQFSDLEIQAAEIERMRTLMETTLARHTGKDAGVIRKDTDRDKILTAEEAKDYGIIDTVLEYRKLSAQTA
UniProt P9WNZ1, whole entry: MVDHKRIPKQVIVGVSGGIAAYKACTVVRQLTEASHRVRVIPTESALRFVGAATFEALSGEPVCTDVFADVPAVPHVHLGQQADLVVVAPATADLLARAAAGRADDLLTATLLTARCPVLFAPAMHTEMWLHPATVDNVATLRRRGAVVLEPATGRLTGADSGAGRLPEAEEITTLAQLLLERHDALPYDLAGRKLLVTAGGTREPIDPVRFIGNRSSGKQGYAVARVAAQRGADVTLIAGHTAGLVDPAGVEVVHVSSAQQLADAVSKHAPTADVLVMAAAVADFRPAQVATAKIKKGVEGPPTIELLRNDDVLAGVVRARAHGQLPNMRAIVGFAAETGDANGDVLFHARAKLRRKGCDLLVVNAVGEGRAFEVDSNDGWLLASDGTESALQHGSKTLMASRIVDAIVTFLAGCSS

From ChEMBL document CHEMBL3988442, “University of Dundee, Small-Polar-MMV Screening Library” (2021).

A: 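Polyketide synthase Pks13, Mycobacterium tuberculosis (UniProt I6X8D2). Enzyme assay of the thioesterase domain of polyketide synthase 13; the read-out is not stated. Concentration: 30 µM. The record gives no direction; the compounds picked for IC50 retests had high values, so higher reads as stronger inhibition. About 67,000 compounds were tested under these conditions; 0.46% (about 300) showed 50% or more at least once.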
B: 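Enzyme assay of histidyl-tRNA synthetase; the read-out is not stated. Target: Histidine-tRNA ligase, Leishmania infantum (UniProt A4I591). Concentration: 30 µM. Direction is inferred from retests: higher values go with stronger inhibition. The assay is labelled LdHisRS but filed under L. infantum. Size under these conditions: about 69,000 compounds, about 410 of them at 50% or above in at least one test.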
C: 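Cell assay of Leishmania donovani living inside macrophages; the read-out is not stated. Concentration: 30 µM. Direction is inferred from retests: higher values go with stronger inhibition. Size under these conditions: about 69,000 compounds, about 1,000 of them at 50% or above in at least one test.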
D: 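Protease assay of ClpP1P2, read by the AMC dye that it sets free. Target: ClpP1P2, Mycobacterium tuberculosis (UniProt P9WPC5 and UniProt P9WPC3). Compounds at 50 µM. Higher reads as stronger inhibition, judged from the few compounds that gave an IC50. Most other retested compounds had strongly negative values. About 69,000 compounds were tested under these conditions; 0.015% (about 10) showed 50% or more at least once.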
E: 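Assay of Toxoplasma gondii numbers, read through their beta-galactosidase reporter with a colour substrate. Compounds at 10 µM. The record gives no direction; the compounds picked for IC50 retests had high values, so higher reads as fewer parasites. Of about 67,000 compounds tested this way, about 260 (0.38%) reached 50% or more in at least one test.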
F: 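Coenzyme A biosynthesis protein CoaBC, Mycobacterium tuberculosis (UniProt P9WNZ1). Enzyme assay of CoaBC with a phosphate dye (Biomol Green) read at 650 nm. Concentration: 30 µM. Direction is inferred from only a few compounds that gave an IC50; most scored high, so higher reads as stronger inhibition. Most strong results did not repeat in a second test. About 67,000 compounds were tested under these conditions; 0.06% (about 40) showed 50% or more at least once.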

Values are the deposited “Percent Effect”, in %.
The controls that fix the scale are not given in the record; negative values are as filed.
The compounds are a random part of those screened.

* O=C(CCCNC(=O)NCC1CCCO1)Nc1ccc(Cl)cc1 (stereo unspecified) : B: 23.08%; C: 26.81%; D: 8.675%; E: -2.323%; F: 0.9639%
* O=C1NCC2(CCCN(Cc3cccnc3)C2)Oc2ccccc21 (stereo unspecified) : A: 7.321%; B: 13.54%; C: 6.721%; D: -0.3645%; E: 8.756%; F: 2.696%
* CC(=O)Nc1ccc(SCC(=O)NCC2CCCO2)nn1 (stereo unspecified) : A: -25.92%; B: 20.78%; C: 15.06%; D: 2.243%; E: -6.942%; F: 3.321%
* CC1=CC(C)(C)N(CN2C(=O)c3ccccc3C2=O)c2ccc(C)cc21 : A: -15.43%; B: 16.42%; C: 15.64%; D: -10.98%; E: -5.865%; F: 6.024%
* CC(C)NC(=O)C1CCN(Cn2ccc(-c3ccc(F)cc3)n2)CC1 : A: 20.78%; B: -8.333%; C: -14.95%; D: -0.3466%; E: 4.628%; F: -0.638%
* Cc1noc(C(C)C)c1C(=O)NCCCOC(C)C : A: -8.955%; B: 6.25%; C: 8.44%; D: -5.675%; E: -2.558%; F: 2.899%
* CCN1CCNC(=O)C12CCN(C(=O)Cc1ccsc1)CC2 : A: -5.599%; B: 11.54%; C: 3.326%; D: -1.317%; E: -11.39%; F: 4%
* Cc1ccc(CNC(=O)NC(C)CCS(C)(=O)=O)cc1F (stereo unspecified) : A: -25.44%; B: 15.15%; C: -36.82%; D: 5.603%; E: -15.49%; F: 2.415%
* O=C(NS(=O)(=O)c1ccccc1Cl)c1cccc2c1OCCO2 : A: -6.648%; B: 13.46%; C: 12.78%; D: -4.718%; E: 1.861%; F: 8.742%
* COCCCN1CCCC(c2nccn2CC2CCC2)C1 (stereo unspecified) : A: -7.083%; B: -52.94%; C: 47.98%; D: 10.97%; E: 5.008%; F: 5.178%
* COCCN1CCC2(COCc3cnc(N4CCOCC4)nc32)C1 (stereo unspecified) : A: -17.66%; B: 0.7299%; D: 2.419%; F: 14.25%
* Cc1noc(C)c1CS(=O)(=O)Cc1nc(C2CC2)no1 : A: -24.64%; B: 20.43%; C: 12.79%; D: -4.864%; E: -4.151%; F: 5.238%
* CCc1nc(CN2CCCC(N(C)Cc3cnc(C)cn3)C2)no1 (stereo unspecified) : A: -0.319%; B: 19.75%; C: -16.69%; D: 2.861%; E: 8.907%; F: 3.201%
* O=C(Cn1ccnc1)N1C[C@@H]2CC[C@H](Oc3ccc(Cl)cc3)[C@@H]2C1 : A: -4.239%; B: 22.68%; D: 9.397%; F: 4.6%
* [H][C@@]12CCCO[C@]1([H])[C@H](N(C)Cc1cccnc1)CN2Cc1ccccn1 : C: 22.98%; E: 26.62%
* Cn1cc(-c2nc(C(=O)N3CCCC3c3cnn(C)c3)cs2)cn1 (stereo unspecified) : A: -12.42%; B: 19.54%; C: 9.346%; D: 10.87%; E: 12.16%; F: 4.922%
* CC(C)(C)OC(=O)N[C@H]1CCN(C(=O)c2cc(Cl)c[nH]2)C1 : A: -9.95%; B: 4.712%; C: 13.68%; D: -9.425%; E: 4.806%; F: 2.174%
* CCCOCC1CCN(C(=O)c2cnc(C)nc2O)C1 (stereo unspecified) : A: -10.95%; B: 14.75%; C: -0.3203%; D: -21.48%; E: -34.43%; F: 14.5%
* CC(C)CC(CO)NC(=O)NCc1csc(N(C)C)n1 (stereo unspecified) : A: -14.29%; B: 40.66%; C: 18.05%; D: -9.65%; E: 5.471%; F: 11.79%
* CN(C)c1nc2c(c(N3CCC(O)CC3)n1)CN(CC(C)(C)C)CC2 : A: -11.16%; B: 14.75%; C: 18.97%; D: 6.322%; E: 6.435%; F: 3.004%

For reference, 2 entries once more:

* CN(C)c1nc2c(c(N3CCC(O)CC3)n1)CN(CC(C)(C)C)CC2 : A: -11.16%; B: 14.75%; C: 18.97%; D: 6.322%; E: 6.435%; F: 3.004%
* Cc1noc(C(C)C)c1C(=O)NCCCOC(C)C : A: -8.955%; B: 6.25%; C: 8.44%; D: -5.675%; E: -2.558%; F: 2.899%